# The campaign covered roughly 330,000 compounds. About 100 (0.03%) were called active. This list was built around the results that the source calls inconclusive (neither active nor inactive); the mix of calls is not that of the screen. The call rests on the fitted dose curve; in most records, active means well fitted inhibition curve with a large enough effect; inconclusive means small, poorly fitted or top-dose-only effect; inactive means flat fitted curve, though single readings scatter. A potency beside an inconclusive call is a rough fit, not a confirmed value.
# Test system: Chaperonin Mm-Cpn (Methanococcus maripaludis)
# Assay: Inhibitors of TCP-1 ring complex (TRiC) of Methanococcus maripaludis (MmCpn): qHTS; further: nearly all actives have a fitted effect of over 80% in size;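 on potency: enzyme at 25 nM with ATP substrate at 10 µM during the reaction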
# Conditions: purified Mm-Cpn ATPase, ADP Transcreener TR-FRET; series mostly up to 76.9 µM
# Outline: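 Purified archaeal Mm-CPN (25nM final) preincubated 10 min at 37degC with compound, then 10uM ATP for 30 min at 37degC; ADP measured by HTRF Transcreener TR-FRET; buffer 30 mM TRIS pH 7.4, 100mM KCl, 5mM MgCl2, 1mM DTT.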
# Potency means the concentration at half of the fitted maximal effect.
row,Compound,Potency
1,Nc1ccccc1-c1n[nH]c(=S)s1,"inconclusive: 56.2 µM [inhibitor, partial curve, poor fit]"
2,COc1ccc(OC)c(C2NC(=S)NC3=C2N2CCC3CC2)c1 (configuration not stated),"inconclusive: 15.8 µM [inhibitor, single point]"
3,O=C(c1cc(-c2cccs2)nc2ccccc12)N1CCN(S(=O)(=O)c2cccc(F)c2)CC1,"inconclusive: 100 µM [inhibitor, single point]"
4,COc1ccc(NC(=O)CSc2cn[nH]n2)c(OC)c1,inactive
5,CCOC(=O)c1c(-c2ccccc2)oc2cc(Br)c(O)c(C=O)c12,"inconclusive: 25.1 µM [inhibitor, partial curve, poor fit]"
6,CC(=O)C1=C(C)NC(SCc2cccc3ccccc23)=C(C#N)C1c1ccco1 (configuration not stated),"inconclusive: 100 µM [inhibitor, single point]"
7,CCOC(=O)/C(C#N)=C/c1cc2ccc(C)cc2nc1Cl,"inconclusive: 562 µM [inhibitor, partial curve, poor fit]"
8,COc1ccc(O)c(CN2CCC(n3nccc3NC(=O)C3CCCC3)CC2)c1,"inconclusive: 12.6 µM [inhibitor, single point]"
9,Cc1ccc(NC(=O)c2ccc3c(c2)OCCO3)cc1S(=O)(=O)Nc1cccc(Cl)c1,"inconclusive: 22.4 µM [inhibitor, single point]"
10,O=C(c1ccco1)N1CCN(C(=O)c2cc(-c3ccc(F)cc3)no2)CC1,"inconclusive: 14.1 µM [inhibitor, single point]"
11,Cc1ccc(NC(=O)C(=O)NCCN2CCN(C(=O)C(c3ccccc3)c3ccccc3)CC2)cc1,"inconclusive: 70.8 µM [inhibitor, single point]"
12,CCCCC(=O)Nc1nc(C)c(-c2csc(Nc3ccccc3OC)n2)s1,"inconclusive: 70.8 µM [inhibitor, partial curve, poor fit]"
13,CC(=O)c1cc2c(cc1NC(=O)CSc1ccc(S(=O)(=O)N(C)C)cn1)OCO2,"inconclusive: 79.4 µM [inhibitor, single point]"
14,Cc1ccc(-n2ncc(C#N)c2N)cc1,inactive
15,Cn1cccc1C(=O)OCC(=O)N1CC(=O)Nc2ccccc21,"inconclusive: 50.1 µM [inhibitor, single point]"
16,CN(C)c1cc[n+](CC(=O)Nc2ccc(OC(F)F)cc2)cc1,"inconclusive: 25.1 µM [inhibitor, single point]"
17,CC(C)Cc1nnc(NC(=O)c2cccc(S(=O)(=O)N3CCOCC3)c2)s1,"inconclusive: 100 µM [inhibitor, single point]"
18,COc1ccc(NC(=O)Cc2c[nH]c3ccccc23)cc1S(=O)(=O)N1CCOCC1,"inconclusive: 22.4 µM [inhibitor, single point]"
19,CCC1Sc2ccc(S(=O)(=O)CCC(=O)Nc3cccc(Br)c3)cc2NC1=O (configuration not stated),inactive
20,CCCc1ccc(-c2ccc(/C=C/C(=O)O)cc2)nc1,"inconclusive: 63.1 µM [inhibitor, single point]"
21,Cc1[nH]c2ccccc2c1/C=C/c1nc2ccccc2c(=O)n1-c1cccc([N+](=O)[O-])c1,inactive

# Molecules from the list above that contain a halogen (seven):
row,Compound,Potency
3,O=C(c1cc(-c2cccs2)nc2ccccc12)N1CCN(S(=O)(=O)c2cccc(F)c2)CC1,"inconclusive: 100 µM [inhibitor, single point]"
5,CCOC(=O)c1c(-c2ccccc2)oc2cc(Br)c(O)c(C=O)c12,"inconclusive: 25.1 µM [inhibitor, partial curve, poor fit]"
7,CCOC(=O)/C(C#N)=C/c1cc2ccc(C)cc2nc1Cl,"inconclusive: 562 µM [inhibitor, partial curve, poor fit]"
9,Cc1ccc(NC(=O)c2ccc3c(c2)OCCO3)cc1S(=O)(=O)Nc1cccc(Cl)c1,"inconclusive: 22.4 µM [inhibitor, single point]"
10,O=C(c1ccco1)N1CCN(C(=O)c2cc(-c3ccc(F)cc3)no2)CC1,"inconclusive: 14.1 µM [inhibitor, single point]"
16,CN(C)c1cc[n+](CC(=O)Nc2ccc(OC(F)F)cc2)cc1,"inconclusive: 25.1 µM [inhibitor, single point]"
19,CCC1Sc2ccc(S(=O)(=O)CCC(=O)Nc3cccc(Br)c3)cc2NC1=O (configuration not stated),inactive

# Remaining list, next part:

row,Compound,Potency
1,CCOC(=O)C(=CNNc1cccc(Cl)c1)C(=O)OCC,inactive
2,COc1cc(NC(=O)c2nccnc2C(=O)O)cc(OC)c1,"inconclusive: 14.1 µM [inhibitor, single point]"
3,CCCNC(=O)c1oc2ccc3c(c2c1C)C=CC(C)(C)O3,"inconclusive: 10 µM [inhibitor, partial curve, poor fit]"
4,COC(=O)CCCNC(=O)c1ccccn1,inactive
5,O=C(O)C1CCCCC1C(=O)NCc1ccncc1 (configuration not stated),"inconclusive: 63.1 µM [inhibitor, single point]"
6,CCOCCCn1c(=N)c(C(N)=S)cc2c(=O)n3cccc(C)c3nc21,inactive
7,CON(C)C(=O)CC1(CN(Cc2ccccc2)C(=O)OC(C)(C)C)CCCCC1,"inconclusive: 8.91 µM [inhibitor, partial curve, poor fit]"
8,Cc1cc(NC(=O)c2nn(C)c(C)c2[N+](=O)[O-])no1,"inconclusive: 89.1 µM [inhibitor, single point]"
9,Cc1ccc(-c2nnc(CSc3nnc(COc4ccccc4)n3-c3ccc(C)cc3)o2)cc1,"inconclusive: 17.8 µM [inhibitor, single point]"
10,Cc1ccc2nc(NC(=O)CN3C(=O)C4CC=CCC4C3=O)sc2c1 (configuration not stated),"inconclusive: 70.8 µM [inhibitor, single point]"
11,COc1ccc(C2CC(c3ccccc3)=NN2c2ccc(S(N)(=O)=O)cc2)cc1OC (configuration not stated),"inconclusive: 316 µM [inhibitor, partial curve, poor fit]"
12,COc1ccccc1-c1cc(C(F)(F)F)nc(S(C)(=O)=O)n1,"inconclusive: 14.1 µM [inhibitor, single point]"
13,O=C(c1ccccc1)c1ccc2nc(-c3ccc(NC(=O)c4ccccc4Br)cc3)[nH]c2c1,"inconclusive: 141 µM [inhibitor, partial curve, poor fit]"
14,CC(C)C(OC(=O)c1ccccc1)c1nccc2ccccc12 (configuration not stated),"inconclusive: 25.1 µM [inhibitor, single point]"
15,Cc1cccc(NC(=O)c2sc3nc(-c4ccccc4)cn3c2C)n1,"inconclusive: 50.1 µM [inhibitor, single point]"
16,O=C(CCN1C(=O)/C(=C/c2ccccc2)SC1=S)NCCc1ccc(O)cc1,"inconclusive: 56.2 µM [inhibitor, single point]"
17,O=C(CCC1CCCC1)NC1CCCCC1,"inconclusive: 35.5 µM [inhibitor, single point]"
18,CC(=O)N1c2ccc(S(=O)(=O)N3CCC(C(=O)Nc4ccc(C)cn4)CC3)cc2CC1C (configuration not stated),"inconclusive: 22.4 µM [inhibitor, single point]"
19,O=C(CSc1ccc2c(c1)OCCO2)NCCN1C(=O)CSC1=O,inactive
20,CC(C)N(CCC(=O)c1ccc2ccccc2c1)Cc1ccccc1,inactive
21,CCCCNCCOCCSc1ccc(Cl)cc1,"inconclusive: 28.2 µM [inhibitor, single point]"
